Source: patent US20140343050A1, “PRODRUGS OF D-ISOGLUTAMYL-[D/L]-TRYPTOPHAN” (APTOEX TECHNOLOGIES, INC., priority 2011, published 2014)
At least one read-out could not be matched to a standard name with certainty.

Assay: Pharmacokinetic study in rats, oral bioavailability (plasma Apo805)
Assay type: in vivo, Sprague-Dawley rats
Settings: 5 mg/kg, n=5, in words
Experimental: Groups of five male Sprague-Dawley rats weighing 250 to 300 g were utilized per dosing group. One day prior to dosing, venous and arterial catheters (made of 20 cm long polyurethane coiled tubing, and filled with 100 units/mL heparinized saline) were implanted into the jugular vein and carotid artery of each rat. Rats were fasted overnight prior to oral dosing and fed approximately 2 hours post-dosing. All dosing and blood sampling was performed on fully conscious rats. Tested compounds were administered either by oral gavage as solutions in water, or by intravenous injection (Apo805K1 only) as solution in 0.9% sodium chloride, final pH 7.0, at doses equivalent to 5 mg/kg (per Apo805 content). Blood (0.3 mL) was sampled from each animal from the carotid artery for up to 30 hours post-dosing, each sampling followed by an equivalent naive-blood replacement. […]
A Sciex API 365 LC/MS/MS […] equipped with Ionics EP10+ and HSID, was used, A chiral column (Supelco-Astec CHIROBIOTIC™ TAG), 100×2.1 mm, 5 μm was used at ambient temperature. […] Samples were analysed for the concentration of Apo805 (thymodepressin).
Non-compartmental analysis was performed using WinNonlin 52 software, on individual animal data. Bioavailability was calculated as a ratio of AUCINF—D after oral dosing of test compound to AUCINF—D after IV dosing of Apo805K1. […]

## CC(OC(=O)OC1CCCCC1)OC(=O)[C@@H](Cc1c[nH]c2ccccc12)NC(=O)CC[C@@H](N)C(=O)O (stereo partly drawn) [Apo843, H-D-Glu(D-Trp-O—CH(CH3)—O—CO—O-cyclohexyl)-OH]
  oral bioavailability of the prodrug compared with Apo805K1 (plasma Apo805): reduced oral bioavailability
